Source: patent publication US9951372B2, “Compounds and methods for assaying redox state of metabolically active cells and methods for measuring NAD(P)/NAD(P)H” (PROMEGA CORPORATION, priority 2011, dated 2018)

Assay: Acid extraction of oxidized and reduced dinucleotides, NAD detection reagent with PBI 4312
Conditions: 60 minutes; for Average relative Light Units (RLU), Acid Treatment: 0.3N hydrochloric acid 15 minutes

Row | Structure (SMILES) | Average relative Light Units (RLU), Acid Treatment (125 nM sample) | Average relative Light Units (RLU), No Acid Treatment (125 nM sample) | Average relative Light Units (RLU), Acid Treatment (250 nM sample) | Average relative Light Units (RLU), No Acid Treatment (250 nM sample)
1 | NC(=O)C1=CN([C@@H]2O[C@H](COP(=O)(O)OP(=O)(O)OC[C@H]3O[C@@H](n4cnc5c(N)ncnc54)[C@H](O)[C@@H]3O)[C@@H](O)[C@H]2O)C=CC1 [NADH] | 15,589 RLU | 205,932 RLU | 25002 RLU | 457,580 RLU
2 | NC(=O)c1ccc[n+]([C@@H]2O[C@H](COP(=O)([O-])OP(=O)(O)OC[C@H]3O[C@@H](n4cnc5c(N)ncnc54)[C@H](O)[C@@H]3O)[C@@H](O)[C@H]2O)c1 [NAD] | 216,075 RLU | 202,591 RLU | 433,471 RLU | 391,458 RLU
